Experimental data from US20110118144A1.
Results are given in words; binding and its absence hold for the method and conditions named. Some results given as binding are weak or reduced against the parent protein; the word gives no strength.

Key:
[1] = molecular target: EGF-pIX fusion on M13-9 phage (M13 phage); test: phage ELISA, sEGFR-mimetibody coated on plate, bound phage detected with anti-M13/HRP
[2] = molecular target: PHPEP 190-pIX fusion on M13-9 phage (M13 phage); test: as above

soluble EGFR-mimetibody (from UniProt P00533 25-645) (Fc fusion)
binding [1]: binds
binding [2]: binds
